According to PMC10707163:

Experiments:
Caveolin-1 [1] = target: T1, Caveolin-1 (UniProt P33724); experiment: co-IP; CAV1 immunoprecipitated with rabbit polyclonal anti-CAV1 on protein A/G-sepharose from extracts of A375 (CAV1/E-cad) cells, PBS-0.1% Tween, 12 h at 4 °C; E-cad detected by immunoblot; cells treated or not with PGE2 (50 uM)
T1 sequence: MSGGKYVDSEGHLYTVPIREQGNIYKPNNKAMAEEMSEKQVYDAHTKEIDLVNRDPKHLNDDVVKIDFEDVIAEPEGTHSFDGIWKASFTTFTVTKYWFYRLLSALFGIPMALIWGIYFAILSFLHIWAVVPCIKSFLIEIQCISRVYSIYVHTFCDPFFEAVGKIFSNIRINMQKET

Caveolin-1 [2] = target: T1, Caveolin-1; experiment: co-IP; CAV1 immunoprecipitated with rabbit polyclonal anti-CAV1 on protein A/G-sepharose from extracts of B16F10 (CAV1/E-cad) cells, PBS-0.1% Tween, 12 h at 4 °C; E-cad detected by immunoblot; cells serum deprived 5 h and treated or not with PGE2 (20 uM, 2 h)

In the case of E-cadherin (murine), the binding (Caveolin-1 [1]) is reported as “binds” and the binding (Caveolin-1 [2]) is reported as “binds”.

No constants are given. Whether binding was seen depends on the method and setting. In cells and extracts the contact can be indirect. Binding can be weak; no strength is given.
